From article PMC7819943, “Rice protein-binding microarrays: a tool to detect cis-acting elements near promoter regions in rice” come the findings set out here.

The chains behind the UniProt entries cited, without tags or fusion partners.
UniProt Q0JBA9, entry or part of it: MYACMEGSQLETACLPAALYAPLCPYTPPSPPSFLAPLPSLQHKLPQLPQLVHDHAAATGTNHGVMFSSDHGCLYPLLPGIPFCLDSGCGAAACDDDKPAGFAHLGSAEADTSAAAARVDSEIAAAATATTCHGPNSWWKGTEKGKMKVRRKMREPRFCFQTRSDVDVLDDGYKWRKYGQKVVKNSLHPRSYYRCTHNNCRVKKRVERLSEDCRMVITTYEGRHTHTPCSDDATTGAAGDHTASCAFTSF

The list shows a part of the results.

The test addresses OsWRKY34 (Oryza sativa, UniProt Q0JBA9 1-250). Briefly: protein-binding microarray (RPBM); PBS, 2% BSA, 51.3 ng/ul salmon testes DNA, 50 uM zinc acetate, 200 nM TF, 25 C, 1 h; high values mean tight binding. Conditions: protein: recombinant; tags: N-terminal polyhistidine and DsRed monomer fusion (pET32a); label: CyDye5-dUTP incorporated in the synthesized complementary strand; 3' TTTTT single-stranded linker to array surface; dsDNA, one strand shown. The method, boiled down: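 Transcription factors, each fused N-terminally to a polyhistidine tag and DsRed, were expressed in E. coli BL21-CodonPlus and purified on Ni–NTA. A custom Agilent array was made double-stranded by primer extension with Cy5-dUTP and blocked with 2% BSA. It was incubated with 200 nM protein in PBS, 2% BSA, salmon testes DNA and 50 µM zinc acetate at 25 °C for 1 h, then washed. The binding signal is per-feature fluorescence intensity (arbitrary units) read on an Axon 4000B scanner.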
In the case of “GTGTTGTATGTGCCTAGCTAGCTATGTATGCCGTACGTACCGGAGTCACCTAGTGCAG”, the binding signal was 10300 fluorescence intensity (a.u.).

Consider “GACCGGCCATCCGCACTACCCACCGCTGTCGCTGGAACTTCGGAGTCACCTAGTGCAG”, for which the binding signal is 10700 fluorescence intensity (a.u.).

As for “CTCCTTAATTTACTTATTTGTCTTTAATTGGTTCTCGCACCGGAGTCACCTAGTGCAG”, the binding signal is 9130 fluorescence intensity (a.u.).

Take “ATTAATTCACTACCTACTCTCCTTGCACCTAACACTCTTACGGAGTCACCTAGTGCAG”: the binding signal was 8860 fluorescence intensity (a.u.).

Take “TGCTCCTTCTCTAATCTCTCCATCACCACCATACAATCTCCGGAGTCACCTAGTGCAG”: the binding signal is 8440 fluorescence intensity (a.u.).

As for “CTAATGCGCGCCGCCCCGATCTCCCGATCCGGTCCGCGCGCGGAGTCACCTAGTGCAG”, the binding signal was 8190 fluorescence intensity (a.u.).

With “CCTCTCTCTCTCTCTCTCTCTCTCTCACACACACACACACCGGAGTCACCTAGTGCAG”, the binding signal was 9540 fluorescence intensity (a.u.).

Consider “CTCAAGTCTCACACTCTCACATGACCACCTGATCTACTGCCGGAGTCACCTAGTGCAG”, for which the binding signal was 8330 fluorescence intensity (a.u.).

Take “GGCGAAGTACTTCTTGGTGTTGTTGCTGCCGCTGCCGGCGCGGAGTCACCTAGTGCAG”: the binding signal is 8120 fluorescence intensity (a.u.).

Regarding “TTCACTTTTTTTTCTTCAAGTTCTTGTGGATCTATTTAATCGGAGTCACCTAGTGCAG”, the binding signal was 9670 fluorescence intensity (a.u.).

As to “TCGGAGAACCTAATTTAACCTAGCTTTGTATATGTTGGGGCGGAGTCACCTAGTGCAG”, the binding signal was 9270 fluorescence intensity (a.u.).

For “CTGTCCGAACATAATACTGTCCTGTAACATTCTTATAAAACGGAGTCACCTAGTGCAG”, the binding signal is 9040 fluorescence intensity (a.u.).

On to “CCCCATCCTCAGCACTCCCATCCTTGGGAAGCAAATCGGGCGGAGTCACCTAGTGCAG”, for which the binding signal is 8160 fluorescence intensity (a.u.).

For the sequence “AATAATCTCCTCGCTACACTCTCTCTGCGCTTGTCACAACCGGAGTCACCTAGTGCAG”, the binding signal is 10300 fluorescence intensity (a.u.).

For “ACACAAATTTTACACCCTATCACATCGAACACGTTTGAACCGGAGTCACCTAGTGCAG”, the binding signal was 8220 fluorescence intensity (a.u.).

For “TCGCGTCAACCCATTATCCTTCACCGCCACACTCGCTGACCGGAGTCACCTAGTGCAG”, the binding signal was 10800 fluorescence intensity (a.u.).

Take “ATTGTGGGACAGAGGAAGTATATTATTGTTCACTTCTTTTCGGAGTCACCTAGTGCAG”: the binding signal is 9840 fluorescence intensity (a.u.).

Consider “ATTATTTTTTCTGTGGTTGAGATGTGGGCCTATGATTTTTCGGAGTCACCTAGTGCAG”, for which the binding signal was 10300 fluorescence intensity (a.u.).

Consider “TTGACTTTTTTAAACATGTTTAACTGTTCGTCTTATTAAACGGAGTCACCTAGTGCAG”, for which the binding signal was 8820 fluorescence intensity (a.u.).

On to “TTCTCCGGATCGCTTCTTCCACCTCGCGCGCACTTCACCTCGGAGTCACCTAGTGCAG”, for which the binding signal is 9580 fluorescence intensity (a.u.).

Take “AATTCTCTCTCTTGCTTTCTCTCTCCTCGCTTCCCGGGTTCGGAGTCACCTAGTGCAG”: the binding signal is 9980 fluorescence intensity (a.u.).

Regarding “ATCCACACTGGCCTCTCGTCCTCACTCCATAACGGCCATGCGGAGTCACCTAGTGCAG”, the binding signal is 10200 fluorescence intensity (a.u.).

As for “CTGCTATCTCCCTTACTGGCGTCCGCTGGGGAGGAGGAGGCGGAGTCACCTAGTGCAG”, the binding signal was 8480 fluorescence intensity (a.u.).

As for “GATCGCCTCGCTCGCTTTCGCCTGTTGCTTCACGTTTCGGCGGAGTCACCTAGTGCAG”, the binding signal is 9220 fluorescence intensity (a.u.).

Regarding “CTAATTTTTAGTCTAACAGCAGCTTTCAAACCGCATTCTTCGGAGTCACCTAGTGCAG”, the binding signal is 9250 fluorescence intensity (a.u.).

As to “TCAGTCGTCACCCCATCATTCTCACGCAATGGGTCAGCAACGGAGTCACCTAGTGCAG”, the binding signal was 9310 fluorescence intensity (a.u.).

In the case of “CACGTCTCAGCTCATTCGTCCTCGTCGCGCGCACACGATCCGGAGTCACCTAGTGCAG”, the binding signal is 8600 fluorescence intensity (a.u.).

In the case of “CTTGCTGTTCATCCTTCTTCTCAAAGAATCTCATATCCCCCGGAGTCACCTAGTGCAG”, the binding signal is 10400 fluorescence intensity (a.u.).

With “CACAAAACTCAGCACGCGGCTATTCACATACTATCGCCAACGGAGTCACCTAGTGCAG”, the binding signal was 9430 fluorescence intensity (a.u.).

As for “CATCTGTGCCGTATGTATTGCATTCGCGCCGCCGCCGCCGCGGAGTCACCTAGTGCAG”, the binding signal is 10900 fluorescence intensity (a.u.).

Regarding “TAGTAGTAGGGTGTTGTGTGGCGCCTCTCGCCGCGAAACGCGGAGTCACCTAGTGCAG”, the binding signal is 9210 fluorescence intensity (a.u.).

“CTACTATGCAAATAATTTTGCCCGTGTTTTACCCCTTTTTCGGAGTCACCTAGTGCAG”: the binding signal was 9630 fluorescence intensity (a.u.).

“AACTCACGTCTCCGTCTCCTCGTAGTATCTGACTTTTAAGCGGAGTCACCTAGTGCAG”: the binding signal was 11400 fluorescence intensity (a.u.).

With “CCTTGGGTGTACTTTTTCCTATCCGCGTTCTTTGACACGACGGAGTCACCTAGTGCAG”, the binding signal is 13600 fluorescence intensity (a.u.).

As for “TTGTTGAGGTCCACCACCAGCGTCACGCCCTGCAGCGGTCCGGAGTCACCTAGTGCAG”, the binding signal was 8820 fluorescence intensity (a.u.).

Regarding “GCACCTCGGCCTCCTTTTCCACACTTTTCACCGTGTTCCTCGGAGTCACCTAGTGCAG”, the binding signal is 8960 fluorescence intensity (a.u.).

For the sequence “CGGATACAGCGGGTAGTTGCTTTTACATGGGTTGCAGGATCGGAGTCACCTAGTGCAG”, the binding signal is 9150 fluorescence intensity (a.u.).

With “ATATATTTGTCTTGGGTTGAAAATGTTACTATTTTTCTCTCGGAGTCACCTAGTGCAG”, the binding signal is 10700 fluorescence intensity (a.u.).

For “AAACCTTTGGACATGTCATTTTGGACCTAACCACATCCTTCGGAGTCACCTAGTGCAG”, the binding signal was 10900 fluorescence intensity (a.u.).

As for “GTGTCTCCCAGAGGGGAGTTGGTGGTGTTCCTGGAGCTTCCGGAGTCACCTAGTGCAG”, the binding signal is 8280 fluorescence intensity (a.u.).

Turning to “GGTTGTTGAGTTGTGTGTGAGGCGTATATAACGCCAGCCTCGGAGTCACCTAGTGCAG”, the binding signal was 10200 fluorescence intensity (a.u.).

For “GGTCACCACTTGTCAAGTTGTCATCATCACTGGCCTACTCCGGAGTCACCTAGTGCAG”, the binding signal was 8490 fluorescence intensity (a.u.).
